Results on four molecules are retold here after publication PMC10808667.

Amino acid sequences for entries named in this document (tags omitted).
UniProt P41597: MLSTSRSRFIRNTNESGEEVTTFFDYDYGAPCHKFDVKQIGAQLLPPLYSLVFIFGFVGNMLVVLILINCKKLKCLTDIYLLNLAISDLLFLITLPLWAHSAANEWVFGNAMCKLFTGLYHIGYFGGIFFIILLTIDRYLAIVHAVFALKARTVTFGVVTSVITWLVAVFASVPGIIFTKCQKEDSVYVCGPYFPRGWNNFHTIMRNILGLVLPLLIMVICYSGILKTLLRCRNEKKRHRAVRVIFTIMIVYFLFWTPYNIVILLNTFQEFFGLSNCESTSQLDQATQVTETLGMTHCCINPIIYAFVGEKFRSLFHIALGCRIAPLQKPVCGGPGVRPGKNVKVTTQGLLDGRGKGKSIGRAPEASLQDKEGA
UniProt P51681: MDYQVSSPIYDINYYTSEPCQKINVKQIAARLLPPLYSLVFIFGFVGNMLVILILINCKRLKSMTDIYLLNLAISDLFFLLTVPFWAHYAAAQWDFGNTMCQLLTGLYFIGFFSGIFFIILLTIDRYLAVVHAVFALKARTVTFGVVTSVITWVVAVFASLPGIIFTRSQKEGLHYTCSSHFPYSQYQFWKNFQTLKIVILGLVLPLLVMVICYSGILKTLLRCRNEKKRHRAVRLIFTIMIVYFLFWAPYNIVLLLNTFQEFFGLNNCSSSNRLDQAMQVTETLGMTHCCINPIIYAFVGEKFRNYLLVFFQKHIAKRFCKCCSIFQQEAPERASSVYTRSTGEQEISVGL
UniProt P51685: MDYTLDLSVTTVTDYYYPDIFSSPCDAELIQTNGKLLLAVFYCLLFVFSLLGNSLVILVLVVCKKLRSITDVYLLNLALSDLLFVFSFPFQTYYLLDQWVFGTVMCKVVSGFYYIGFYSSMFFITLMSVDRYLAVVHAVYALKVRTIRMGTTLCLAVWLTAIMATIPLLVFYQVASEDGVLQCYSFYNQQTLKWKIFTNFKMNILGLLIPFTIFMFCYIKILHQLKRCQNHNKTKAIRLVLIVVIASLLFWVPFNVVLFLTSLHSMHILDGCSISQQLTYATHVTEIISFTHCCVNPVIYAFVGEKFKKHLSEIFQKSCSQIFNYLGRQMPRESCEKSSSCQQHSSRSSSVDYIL

Like-named read-outs stand apart in the source and are kept apart here. No constants are given. Whether binding was seen depends on the method and setting. Binding seen in cells or lysates may run through a third protein. Some entries that bind do so weakly or less than the wild type. Tags and fused reporters may be left off the sequences shown.

The target in experiment [1] is T1, Recombinant flag-CCL16 (human) (UniProt O15467).
T1 sequence: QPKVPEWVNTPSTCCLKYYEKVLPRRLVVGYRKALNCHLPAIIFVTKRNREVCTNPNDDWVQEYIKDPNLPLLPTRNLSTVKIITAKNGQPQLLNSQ
Nature of the experiment: co-IP; Flag-CCL16 recombinant protein added to THP1 cells for 24 h; cells lysed in RIPA buffer with proteinase inhibitors; lysate incubated overnight at 4°C with Flag or IgG antibody, protein A/G beads for 4 h, three washes with RIPA; immunoblot with Flag/CCR1/CCR2/CCR5/CCR8 antibodies; only the target purified. A general note: Immunoblotting shows a protein as a band on a membrane.

In experiment [2] the target is T1, Recombinant flag-CCL16 (human). The experiment is described as above. The source holds these as a separate data set.

As for “CCR2 (from UniProt P41597 1-374) (receptor)”, the binding entry in experiment [1] is listed as “binds weakly”.
As for “CCR5 (from UniProt P51681 1-352) (receptor)”, in experiment [1], the binding result was “binds weakly”.
Still for that read-out and setting: for “CCR8 (from UniProt P51685 1-355) (receptor)” the value was “binds weakly”.

B1: CCR1 (receptor, UniProt P32246 1-355)
chain: METPNTTEDYDTTTEFDYGDATPCQKVNERAFGAQLLPPLYSLVFVIGLVGNILVVLVLVQYKRLKNMTSIYLLNLAISDLLFLFTLPFWIDYKLKDDWVFGDAMCKILSGFYYTGLYSEIFFIILLTIDRYLAIVHAVFALRARTVTFGVITSIIIWALAILASMPGLYFSKTQWEFTHHTCSLHFPHESLREWKLFQALKLNLFGLVLPLLVMIICYTGIIKILLRRPNEKKSKAVRLIFVIMIIFFLFWTPYNLTILISVFQDFLFTHECEQSRHLDLAVQVTEVIAYTHCCVNPVIYAFVGERFRKYLRQLFHRRVAVHLVKWLPFLSVDRLERVSSTSPSTGEHELSAGF
Take B1: the binding entry in experiment [2] was “binds”.
